# Results taken from paper doi:10.1101/2025.03.14.643291.
# Amino acid sequences for entries named in this document (tags omitted).
# UniProt Q8VBV3: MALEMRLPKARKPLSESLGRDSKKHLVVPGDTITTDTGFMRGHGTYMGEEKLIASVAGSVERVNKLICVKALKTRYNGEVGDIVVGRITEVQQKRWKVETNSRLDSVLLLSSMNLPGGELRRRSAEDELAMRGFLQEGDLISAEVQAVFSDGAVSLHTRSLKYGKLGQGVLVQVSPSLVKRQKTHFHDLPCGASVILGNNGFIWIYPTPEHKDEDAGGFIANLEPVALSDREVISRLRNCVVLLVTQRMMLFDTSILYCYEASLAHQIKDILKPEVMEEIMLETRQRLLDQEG
# UniProt Q8C0S1: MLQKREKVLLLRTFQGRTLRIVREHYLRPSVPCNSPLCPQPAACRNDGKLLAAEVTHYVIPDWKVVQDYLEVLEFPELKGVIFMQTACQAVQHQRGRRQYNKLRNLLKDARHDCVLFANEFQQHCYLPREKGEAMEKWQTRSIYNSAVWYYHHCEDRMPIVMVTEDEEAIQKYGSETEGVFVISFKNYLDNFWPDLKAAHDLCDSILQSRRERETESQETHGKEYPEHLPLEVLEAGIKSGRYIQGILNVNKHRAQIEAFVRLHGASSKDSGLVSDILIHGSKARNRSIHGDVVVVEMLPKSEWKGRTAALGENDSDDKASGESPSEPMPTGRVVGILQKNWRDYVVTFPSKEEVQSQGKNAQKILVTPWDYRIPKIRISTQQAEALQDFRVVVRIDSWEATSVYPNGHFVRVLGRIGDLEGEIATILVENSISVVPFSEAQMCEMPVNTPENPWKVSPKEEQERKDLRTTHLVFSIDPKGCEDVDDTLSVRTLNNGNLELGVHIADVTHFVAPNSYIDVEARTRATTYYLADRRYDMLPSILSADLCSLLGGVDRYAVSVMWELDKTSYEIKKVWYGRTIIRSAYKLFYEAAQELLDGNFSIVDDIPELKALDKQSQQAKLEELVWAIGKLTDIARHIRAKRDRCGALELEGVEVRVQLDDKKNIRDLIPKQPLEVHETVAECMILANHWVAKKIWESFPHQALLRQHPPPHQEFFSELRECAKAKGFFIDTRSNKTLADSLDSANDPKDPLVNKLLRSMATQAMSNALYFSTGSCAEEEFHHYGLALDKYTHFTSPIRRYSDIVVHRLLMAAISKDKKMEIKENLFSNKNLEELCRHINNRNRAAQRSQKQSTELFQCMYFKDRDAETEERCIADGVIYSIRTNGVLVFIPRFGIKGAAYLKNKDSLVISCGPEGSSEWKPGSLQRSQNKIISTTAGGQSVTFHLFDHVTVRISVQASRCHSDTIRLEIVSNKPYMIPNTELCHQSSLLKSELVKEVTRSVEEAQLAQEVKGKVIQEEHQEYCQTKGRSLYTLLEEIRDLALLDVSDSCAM
# UniProt Q7TQK4: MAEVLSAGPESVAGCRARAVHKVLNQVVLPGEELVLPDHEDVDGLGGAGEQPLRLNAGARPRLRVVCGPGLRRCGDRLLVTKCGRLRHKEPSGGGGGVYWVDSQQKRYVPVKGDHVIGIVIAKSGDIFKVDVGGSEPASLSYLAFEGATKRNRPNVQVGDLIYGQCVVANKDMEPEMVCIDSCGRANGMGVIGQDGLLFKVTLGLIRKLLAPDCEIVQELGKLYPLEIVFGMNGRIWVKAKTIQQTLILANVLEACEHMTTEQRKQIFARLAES
# UniProt Q921I9: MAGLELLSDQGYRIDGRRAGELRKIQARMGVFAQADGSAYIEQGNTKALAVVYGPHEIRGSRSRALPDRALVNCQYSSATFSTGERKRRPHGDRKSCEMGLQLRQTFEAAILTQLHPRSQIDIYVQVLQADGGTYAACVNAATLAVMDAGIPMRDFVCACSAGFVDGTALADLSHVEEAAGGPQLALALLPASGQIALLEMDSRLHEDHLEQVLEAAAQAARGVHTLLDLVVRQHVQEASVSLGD
# UniProt Q8BTW3: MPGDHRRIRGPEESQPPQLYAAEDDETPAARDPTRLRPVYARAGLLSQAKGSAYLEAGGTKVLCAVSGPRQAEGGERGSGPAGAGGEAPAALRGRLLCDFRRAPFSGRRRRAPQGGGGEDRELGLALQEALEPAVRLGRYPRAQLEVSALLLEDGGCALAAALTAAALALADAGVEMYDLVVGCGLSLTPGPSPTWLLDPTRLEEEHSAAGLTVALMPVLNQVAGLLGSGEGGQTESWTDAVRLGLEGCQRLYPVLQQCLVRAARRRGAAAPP
# UniProt Q9D0M0: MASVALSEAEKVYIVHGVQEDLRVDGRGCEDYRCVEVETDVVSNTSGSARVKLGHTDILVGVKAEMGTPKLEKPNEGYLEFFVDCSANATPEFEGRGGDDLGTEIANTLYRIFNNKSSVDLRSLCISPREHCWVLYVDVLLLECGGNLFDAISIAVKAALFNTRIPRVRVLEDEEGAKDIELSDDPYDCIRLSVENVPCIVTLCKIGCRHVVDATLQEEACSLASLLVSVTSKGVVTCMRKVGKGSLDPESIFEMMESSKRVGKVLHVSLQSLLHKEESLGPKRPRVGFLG
# UniProt Q9D753: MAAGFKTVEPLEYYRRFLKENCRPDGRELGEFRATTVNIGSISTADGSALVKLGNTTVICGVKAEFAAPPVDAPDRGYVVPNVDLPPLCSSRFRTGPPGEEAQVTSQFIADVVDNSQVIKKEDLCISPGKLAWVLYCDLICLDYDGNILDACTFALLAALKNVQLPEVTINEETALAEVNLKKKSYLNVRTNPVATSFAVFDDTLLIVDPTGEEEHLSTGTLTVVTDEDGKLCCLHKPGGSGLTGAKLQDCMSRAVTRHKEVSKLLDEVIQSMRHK
# UniProt Q9JHI7: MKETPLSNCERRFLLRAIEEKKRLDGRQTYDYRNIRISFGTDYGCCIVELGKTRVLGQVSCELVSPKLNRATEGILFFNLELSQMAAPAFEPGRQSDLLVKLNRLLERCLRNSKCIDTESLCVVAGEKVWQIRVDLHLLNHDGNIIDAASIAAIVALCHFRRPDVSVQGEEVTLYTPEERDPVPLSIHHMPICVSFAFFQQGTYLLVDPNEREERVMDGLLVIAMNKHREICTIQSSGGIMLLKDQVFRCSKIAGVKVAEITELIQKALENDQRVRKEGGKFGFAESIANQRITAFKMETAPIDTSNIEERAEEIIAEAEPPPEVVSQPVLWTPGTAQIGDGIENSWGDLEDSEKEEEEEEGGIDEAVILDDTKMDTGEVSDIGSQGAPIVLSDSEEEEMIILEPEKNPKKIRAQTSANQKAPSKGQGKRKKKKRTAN
# No constants are given. Whether binding was seen depends on the method and setting. In cells and extracts the contact can be indirect. Some entries that bind do so weakly or less than the wild type.
# B1: Dis3 (enzyme, UniProt Q9CSH3 1-958)
# chain: MLRSKTFLKKTRAGGVVKIVREHYLRDDIGCGAPACSACGGAHAGPALELQPRDQASSLCPWPHYLLPDTNVLLHQIDVLEHPAIRNVIVLQTVMQEVRNRSAPIYKRIRDVTNNQEKHFYTFTNEHHKETYIEQEQGENANDRNDRAIRVAAKWYNEHLKRVAADSQLQVILITNDRKNKEKAVQEGIPAFTCEEYVKSLTANPELIDRLAYLSDEMNEIESGKIIFSEHLPLSKLQQGIKSGSYLQGTFRASRENYLEATVWIHGDKEEEKEILIQGIKHLNRAVHEDIVAVELLPRSQWVAPSSVVLDDEGQNEDDVEKDEERELLLKTAVSEKMLRPTGRVVGIIKRNWRPYCGMLSKSDIKESRRHLFTPADKRIPRIRIETRQASALEGRRIIVAIDGWPRNSRYPNGHFVKNLGDVGEKETETEVLLLEHDVPHQPFSQAVLSFLPRMPWSITEEDMKNREDLRHLCVCSVDPPGCTDIDDALHCRELSNGNLEVGVHIADVSHFIRPGNALDQESARRGTTVYLCEKRIDMVPELLSSNLCSLRSNVDRLAFSCIWEMNHNAEILKTRFTKSVINSKASLTYAEAQMRIDSAAMNDDITTSLRGLNQLAKILKKGRIEKGALTLSSPEIRFHMDSETHDPIDLQTKELRETNSMVEEFMLLANISVAKKIHEEFSEHALLRKHPAPPPSNYDILVKAAKSKNLQIKTDTAKSLADSLDRAESPDFPYLNTLLRILATRCMMQAVYFCSGMDNDFHHYGLASPIYTHFTSPIRRYADIIVHRLLAVAIGADCTYPELTDKHKLSDICKNLNFRHKMAQYAQRASVAFHTQLFFKSKGIVSEEAYILFVRKNAIVVLIPKYGLEGTVFFEEKDKPKPRLAYDDEIPSLRIEGTVFHVFDKVKVKITLDSSNLQHQKIRMALVEPQIPGINIPPNVADKALTAPGGKKRKLEK
# B2: Exosc10 (enzyme, UniProt P56960 1-887)
# chain: MAPPSPREHQSAPATSATKPDAEMVLPGFPDADSFVKFALGSVVAVTKASGGLPQFGDEYDFYRSFPAFQAFCETQGDRLLQCMSRVMQYHGCRSNIKDRSKVTELEDKFDLLVDTNDVILERVGMLLDEASGVNKHQQPVLPAGLQVPKTIVSSWNRKAGEYGKKAKSETFRLLHAKNIVRPQLRFREKIDNSNTPFLPKIFVKPNARKPLPLALSKERRERPQDRPEDLDVPPALADFIHQQRTQQVEQDMFAHPYQYELDHFTPPQSVLQRPKPQLYRAVGETPCHLVSSLDELVELNEKLLGCQEFAVDLEHHSYRSFLGLTCLMQISTRTEDFIVDTLELRSDMYILNESLTDPAIVKVFHGADSDIEWLQKDFGLYVVNMFDTHQAARLLNLARHSLDHLLRLYCGVESNKQYQLADWRIRPLPEEMLSYARDDTHYLLYIYDRMRLELWERGNHQPVQLQVVWQRSRDICLKKFVKPIFTDESYLELYRKQKKHLNSQQLTAFQLLFAWRDKTARREDESYGYVLPNHMMLKIAEELPKEPQGIIACCNPVPPLVRQQINEMHLLIQQAREMPLLKSENAAGVRKSGPLPSAERLENDLFGPHDCSHAPPDNYQNTSTDGTLPLQKQPSLFTEGKEETSVDAGCLLATAVITLFSEPNTEEGGKTPLTVAQKKAQNIMQSFENPFRMFLPSLEHKAHISQAAKFDPSSKIYEISNRWKLASQVQVQKEPKEATKKKVAEQTAAREEAKEEAAAGVLEQAIPVRQQAALENATKKRERATSDLRTIEQKQEKKRLKSSKKAKDPDPPGKDFSPYDYSQSDFRAFAGDSKSKPSSQFDPNKLAPSGKKGVGAKKCKQSVGNKSMSFAVGKSDRGFRHNWPKR
# Target: Exosc2-mCherry-V5 (mouse) (UniProt Q8VBV3)
# Assay: co-IP
row,binding,Molecule
1,binds weakly,B1
2,binds,B2

# Target: Exosc2-mCherry-V5 (mouse) (UniProt Q8VBV3)
# Assay: co-IP
# Remark: another data set of the same source
row,binding,Molecule
1,binds,Dis3L (from UniProt Q8C0S1 1-1053) (enzyme)
2,binds,Exosc1 (from UniProt Q9DAA6-1 1-195)
3,binds,Exosc3 (from UniProt Q7TQK4 1-274)
4,binds,Exosc4 (from UniProt Q921I9 1-245)
5,binds,Exosc6 (from UniProt Q8BTW3 1-273)
6,binds,Exosc7 (from UniProt Q9D0M0 1-291)
7,binds,Exosc8 (from UniProt Q9D753 1-276)
8,binds,Exosc9 (from UniProt Q9JHI7 1-438)
